# Results published in PubChem BioAssay (EPA / NIEHS).
# Protein sequences, listed by entry. Tags and fused reporters are not part of them.
# UniProt P04637, whole entry, looked up: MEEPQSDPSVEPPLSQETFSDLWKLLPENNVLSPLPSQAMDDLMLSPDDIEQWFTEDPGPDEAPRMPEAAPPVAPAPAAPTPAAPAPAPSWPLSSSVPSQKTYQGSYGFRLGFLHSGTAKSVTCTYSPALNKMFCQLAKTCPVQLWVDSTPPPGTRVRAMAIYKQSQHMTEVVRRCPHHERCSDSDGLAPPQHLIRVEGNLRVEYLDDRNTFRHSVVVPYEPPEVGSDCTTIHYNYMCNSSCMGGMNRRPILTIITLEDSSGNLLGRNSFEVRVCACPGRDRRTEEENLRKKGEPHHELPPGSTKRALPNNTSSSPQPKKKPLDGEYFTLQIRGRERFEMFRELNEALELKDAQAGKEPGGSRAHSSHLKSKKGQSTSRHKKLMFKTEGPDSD
# Values joined by “and” are separate entries in the source; they are usually repeats but may differ in a detail not shown here. Identical values can stand only once. This list was built around the results that the source calls inconclusive (neither active nor inactive); the mix of calls is not that of the screen. A potency beside an inconclusive call is a rough fit, not a confirmed value. Where a structure was tested more than once in an assay, its records may differ in their call. Active and inactive are the calls of the source. The calls were made as follows: active = hit-call score of the fitted dose curve at least 0.9, where 1 is the maximum; inconclusive = response in the unintended direction; inactive = score below 0.9.
# Tests used:
# [1] = biological target: Cellular tumor antigen p53 (Homo sapiens) (UniProt P04637); assay: TOX21_p53_BLA_p5_ratio: Tox21 HCT-116 p53 Agonism Beta-lactamase Assay, Ratio, Phase 5 (AID 2283599)
# Procedure, shortened: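 HCT-116 cells carrying a p53-inducible beta-lactamase reporter were seeded at 4000 cells/well and dosed after 5 h with compound in DMSO (217-fold dilution). After 16 h at 37C, CCF4-AM substrate was added for 2 h, and the 460/530 nm emission ratio was scored as gain-of-signal versus DMSO.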
# [2] = biological target: Cellular tumor antigen p53 (Homo sapiens) (UniProt P04637); assay: TOX21_p53_BLA_p4_ratio: Tox21 HCT-116 p53 Agonism Beta-lactamase Assay, Ratio, Phase 4 (AID 2283601)
# Procedure, shortened: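 HCT116 cells carrying an inducible beta-lactamase reporter were plated at 4000 cells/well, rested 5 h, then exposed to compounds in DMSO (217-fold dilution) for 16 h at 37C. CCF4-AM substrate was loaded 2 h at room temperature; 460/530 nm emission ratio scored gain-of-signal versus DMSO.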
# [3] = TOX21_p53_BLA_p5_viability: Viability Assessment in the Tox21 HCT-116 p53 Agonism Beta-lactamase Assay, Phase 5 (AID 2283600)
# Procedure, shortened: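 HCT-116 p53 beta-lactamase reporter cells, 4000/well, were exposed to compound (pin transfer, 217-fold dilution) for 16 hours at 37C. Cellular ATP was read by CellTiter-Glo luminescence after 30 min at room temperature.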
# [4] = Tanguay_ZF_120hpf_OTIC_legacy: (Legacy) Oregon State University Tanguay Lab 120 Hour Post-fertilization zebrafish Assay for Otic Vesicle Malformation (AID 2283639)
# Procedure, shortened: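 Tropical 5D wild-type zebrafish embryos were exposed statically in sealed, foil-covered plates at 28C until 120 hpf, with 0.64% (vol/vol) DMSO final. Otic vesicle malformation was scored present/absent by brightfield microscopy, with DMSO as baseline.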
# [5] = Tanguay_ZF_120hpf_AXIS_legacy: (Legacy) Oregon State University Tanguay Lab 120 Hour Post-fertilization zebrafish Assay for Body Axis Malformation (AID 2283635);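 as to AC50: potency for an increased fraction of larvae scored with body axis malformation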
# Procedure, shortened: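 Dechorionated wild-type Tropical 5D zebrafish embryos, one per well, statically exposed from 6 hpf to 120 hpf at 28C in 0.64% DMSO final. Body axis malformation scored present/absent by brightfield microscopy at 120 hpf; dead embryos excluded.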
# [6] = Tanguay_ZF_120hpf_EYE_legacy: (Legacy) Oregon State University Tanguay Lab 120 Hour Post-fertilization zebrafish Assay for Eye Malformation (AID 2283636);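 also: binary presence or absence of eye malformation scored by brightfield in 120 hpf larvae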
# Procedure, shortened: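 Dechorionated wild-type Tropical 5D zebrafish embryos were exposed statically from 6 hpf, one per well, to 120 hpf at 28C in sealed, foil-covered plates with 0.64% DMSO. Eye malformation was scored present/absent by brightfield microscopy against DMSO controls.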
# [7] = Tanguay_ZF_120hpf_YSE_legacy: (Legacy) Oregon State University Tanguay Lab 120 Hour Post-fertilization zebrafish Assay for Yolk Sac Edema (AID 2283634);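 as to AC50: actives raise the incidence of yolk sac edema above the DMSO baseline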
# Procedure, shortened: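 Dechorionated Tropical 5D wild-type zebrafish embryos were exposed statically, one per well, from 6 to 120 hpf at 28C in 0.64% DMSO. Yolk sac edema was scored present/absent by brightfield at 120 hpf, and dead embryos were excluded.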
# [8] = Tanguay_ZF_120hpf_JAW_legacy: (Legacy) Oregon State University Tanguay Lab 120 Hour Post-fertilization zebrafish Assay for Jaw Malformation (AID 2283638);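 also: active means more embryos with jaw malformation than DMSO controls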
# Procedure, shortened: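 Dechorionated Tropical 5D wild-type zebrafish embryos, one per well, exposed statically from 6 hpf to 120 hpf at 28C in 0.64% DMSO. Jaw malformation was scored by brightfield microscopy as present or absent. It was not scored in dead embryos.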
# [9] = Tanguay_ZF_120hpf_SNOU_legacy: (Legacy) Oregon State University Tanguay Lab 120 Hour Post-fertilization zebrafish Assay for Snout Malformation (AID 2283637)
# Procedure, shortened: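 Tropical 5D wild-type zebrafish embryos, dechorionated with pronase at 4 hpf, were exposed singly from 6 hpf to 120 hpf statically at 28C in 0.64% DMSO. Snout malformation was scored present/absent by brightfield microscopy, fitted against DMSO.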
smiles,measurement,setting,value
C#CCOC(=O)[C@@H](C)Oc1ccc(Oc2ncc(Cl)cc2F)cc1,outcome,[1],inactive
same,outcome,[2],inactive
CCOC(=O)C1CC(=O)C(=C(O)C2CC2)C(=O)C1 (configuration not stated),AC50,[1],inconclusive: 46.1 µM
same,outcome,[2],inactive
CCO[Si](CC)(OCC)OCC,AC50,[1],inconclusive: 46.1 µM
same,outcome,[2],inactive
COC(=O)[C@]1(C)CCC[C@@]2(C)[C@H]1CC=C1C=C(C(C)C)CC[C@@H]12,AC50,[1],inconclusive: 46.1 µM
same,AC50,[2],inconclusive: 46.1 µM
NC(=O)N1C(=O)C(C(=O)c2cc(Cl)cs2)c2cc(F)c(Cl)cc21 (configuration not stated),AC50,[1],active: 7.17 µM
same,outcome,[3],inactive
same,AC50,[2],active: 14 µM
same,outcome,[4],inactive
COc1cc(S(=O)(=O)O)c(C)cc1N=Nc1c(O)ccc2cc(S(=O)(=O)O)ccc12,outcome,[1],inactive
same,AC50,[3],inconclusive: 46.1 µM
same,outcome,[2],inactive
same,outcome,[5],inactive
O=CCc1ccccc1,AC50,[1],inconclusive: 85.8 µM and inconclusive: 45.8 µM
same,AC50,[3],inconclusive: 45.8 µM
same,AC50,[2],inconclusive: 45.8 µM
same,outcome,[2],inactive
CCOC(=O)COC(=O)c1cc(Oc2ccc(C(F)(F)F)cc2Cl)ccc1[N+](=O)[O-],AC50,[1],inconclusive: 46.1 µM
same,AC50,[2],inconclusive: 46.1 µM
Clc1nc(Cl)c(Cl)c(Cl)c1Cl,AC50,[1],inconclusive: 46.3 µM
same,AC50,[3],inconclusive: 46.3 µM
same,AC50,[2],inconclusive: 68.8 µM
same,outcome,[6],inactive
CCCCCOC(=O)CCCCC,AC50,[1],inconclusive: 46.1 µM
same,AC50,[3],inconclusive: 46.1 µM
same,AC50,[2],inconclusive: 46.1 µM
CCC(C)c1cc([N+](=O)[O-])cc([N+](=O)[O-])c1OC(=O)OC(C)C (configuration not stated),AC50,[1],active: 36.9 µM
same,outcome,[2],inactive
CCCC(CC)c1ccccc1 (configuration not stated),AC50,[1],inconclusive: 46.1 µM
same,AC50,[2],inconclusive: 46.1 µM
COC(=O)c1ccc(C)cc1C1=NC(C)(C(C)C)C(=O)N1 (configuration not stated) (tested in a mixture with another compound),AC50,[1],inconclusive: 46.1 µM
same,AC50,[2],inconclusive: 46.1 µM
C=CC(O)CCCCC (configuration not stated),AC50,[1],inconclusive: 46.1 µM
same,outcome,[3],inactive
same,AC50,[2],inconclusive: 46.1 µM
CN1[C@@H]2CC(OC(=O)[C@H](CO)c3ccccc3)C[C@H]1[C@@H]1O[C@@H]12 (some centres not stated),outcome,[1],inactive
same,AC50,[3],inconclusive: 23 µM
same,AC50,[2],inconclusive: 46.1 µM
Nc1nnc(-c2ccc([N+](=O)[O-])o2)o1,outcome,[1],inactive
same,AC50,[2],active: 70.1 µM
CC(C)(C)c1ccc(O)c(O)c1,outcome,[1],inactive
same,outcome,[2],inactive
CC(=O)Nc1cc(S(=O)(=O)O)cc2cc(S(=O)(=O)O)c(N=Nc3ccccc3)c(O)c12,outcome,[1],inactive
same,outcome,[2],inactive
O=c1[nH]c(=O)c2cn[nH]c2[nH]1,outcome,[3],inactive
CC/C(=C\C(=N/O)C(N)=O)C(C)[N+](=O)[O-] (configuration not stated),AC50,[3],inconclusive: 46.1 µM
CCCCCCCCCCN,AC50,[3],inconclusive: 0.00013 µM
same,outcome,[3],inactive
CCOC(=O)COC(=O)c1ccccc1C(=O)OCC,AC50,[3],inconclusive: 46.1 µM
Oc1cccc2ccccc12,AC50,[3],inconclusive: 3.65 µM
Oc1c(Cl)cc(Cl)cc1Sc1cc(Cl)cc(Cl)c1O,AC50,[3],active: 82 µM and active: 85.7 µM
CC(C)OC(=O)COc1ccc(Cl)cc1Cl,AC50,[3],inconclusive: 45.5 µM
O=Cc1ccc(Cl)c([N+](=O)[O-])c1,AC50,[3],inconclusive: 78.2 µM
CC(C)(C#N)c1cc(Cn2cncn2)cc(C(C)(C)C#N)c1,AC50,[3],inconclusive: 23 µM
same,outcome,[3],inactive
CCC(C)(C)C1CCC(OC)CC1 (configuration not stated),AC50,[3],inconclusive: 46.1 µM
CC(=O)NS(=O)(=O)c1ccc(N)cc1,AC50,[3],inconclusive: 46.1 µM
same,outcome,[3],inactive
same,AC50,[2],inconclusive: 23 µM
COC(=O)CSc1cc(N=c2sc(=O)n3n2CCCC3)c(F)cc1Cl,AC50,[1],inconclusive: 46.1 µM
same,AC50,[2],inconclusive: 46.1 µM
same,outcome,[7],inactive
same,AC50,[5],inconclusive: 3.68 µM
same,AC50,[4],inconclusive: 25.5 µM
CC1(C)CC(N=C=O)CC(C)(CN=C=O)C1 (configuration not stated),AC50,[1],inconclusive: 46.6 µM
same,AC50,[6],inconclusive: 22.6 µM
Nc1ccc(-c2ccc(F)cc2)cc1,AC50,[3],inconclusive: 46.1 µM
C=C1CC/C=C(\C)CC[C@@H]2[C@@H]1CC2(C)C,AC50,[3],inconclusive: 46.1 µM
COC(CC(C)CCCC(C)(C)O)OC (configuration not stated),AC50,[3],inconclusive: 46.1 µM
COC(=O)Nc1ccc(Cl)c(Cl)c1,outcome,[3],inactive
C=CCOC(=O)CCC1CCCCC1,AC50,[3],inconclusive: 46.1 µM
Nc1ccc(O)c(N)c1,AC50,[3],inconclusive: 46.1 µM and inconclusive: 45.8 µM
CC(=O)C(C)O (configuration not stated),AC50,[3],inconclusive: 0.0105 µM
COCc1c(C(C)C)nc(C(C)C)c(/C=C/[C@@H](O)C[C@@H](O)CC(=O)O)c1-c1ccc(F)cc1,outcome,[3],inactive
CCCC[O][Al]([O]CCCC)[O]CCCC,AC50,[3],inconclusive: 46.1 µM
CCCCCCCCCC(=O)OCC,outcome,[3],inactive
CCCCCCC(CO)CCCC (configuration not stated),AC50,[3],inconclusive: 46.1 µM
Cc1[nH]c(=O)c(C#N)cc1-c1ccncc1,AC50,[3],inconclusive: 23 µM
same,outcome,[3],inactive
same,outcome,[2],inactive
CC[C@H]1OC(=O)[C@H](C)[C@@H](O[C@H]2C[C@@](C)(OC)[C@@H](O)[C@H](C)O2)[C@H](C)[C@@H](O[C@@H]2O[C@H](C)C[C@H](N(C)C)[C@H]2O)[C@](C)(O)C[C@@H](C)C(=O)[C@H](C)[C@@H](O)[C@]1(C)O,AC50,[1],inconclusive: 33.7 µM
same,outcome,[2],inactive
same,AC50,[7],inconclusive: 80.2 µM
O=C(O)c1cc2ccccc2nc1C(=O)O,AC50,[3],inconclusive: 46.1 µM
Oc1ccc(Oc2ccccc2)cc1,AC50,[3],inconclusive: 11.3 µM
Fc1ccc(Br)cc1,AC50,[3],inconclusive: 46.1 µM and inconclusive: 46.5 µM
CC(=O)[C@@]1(O)CC[C@H]2[C@@H]3C[C@H](C)C4=CC(=O)C=C[C@]4(C)[C@@]3(F)[C@@H](O)C[C@@]21C,AC50,[3],inconclusive: 46.1 µM and inconclusive: 10.3 µM
same,AC50,[2],inconclusive: 10.3 µM
O=C(Oc1ccccc1)c1ccccc1C(=O)Oc1ccccc1,AC50,[3],inconclusive: 0.00533 µM
CC(=O)C(C)=CC1C(C)=CCCC1(C)C (configuration not stated),outcome,[1],inactive
same,AC50,[2],inconclusive: 46.1 µM
same,AC50,[7],inconclusive: 202 µM
same,AC50,[8],inconclusive: 2.14 µM
O=C1OC(c2ccc(O)cc2)(c2ccc(O)cc2)c2ccccc21,AC50,[3],inconclusive: 45.8 µM
same,outcome,[3],inactive
NNC(=O)c1cccc(C(=O)NN)c1,AC50,[3],inconclusive: 46.1 µM
CCCC[C@H]1CN(CC2CCOCC2)C(=O)OC12CCN(C1(C)CCN(C(=O)c3c(C)ncnc3C)CC1)CC2,outcome,[3],inactive
CCO/C=C1\N=C(c2ccccc2)OC1=O,AC50,[3],inconclusive: 45.9 µM
CCCCCc1cccc(=O)o1,AC50,[3],inconclusive: 0.000613 µM
CCOC(=O)c1ccc(C2CCC(NC[C@H](O)COc3ccc(O)c(NS(C)(=O)=O)c3)CC2)cc1 (some centres not stated),outcome,[1],inactive
same,AC50,[2],active: 84 µM
same,AC50,[6],inconclusive: 11.7 µM
same,AC50,[8],inconclusive: 110 µM
CCCCNS(=O)(=O)c1ccc(C)cc1,AC50,[3],inconclusive: 46.1 µM
O=C1O[C@H]([C@H](O)CO)C(O)=C1O,outcome,[6],inactive
same,AC50,[9],inconclusive: 23.6 µM
C/C=C/c1ccc(OC)cc1,outcome,[7],inactive
same,AC50,[5],inconclusive: 30.4 µM
O=NO,outcome,[6],inactive
same,AC50,[8],inconclusive: 81.8 µM
same,AC50,[4],inconclusive: 155 µM
CCCCCCCCCCCCc1ccccc1S(=O)(=O)O,AC50,[8],inconclusive: 202 µM
CCC(=O)OCCC(C)CCC=C(C)C (configuration not stated),AC50,[2],inconclusive: 46.1 µM
NCCOCCOCCN,AC50,[6],inconclusive: 1.36 µM
COc1cc(C(C)C)c2c(c1)S(=O)(=O)N(COc1cc(=O)n3cccc(OCCN4CCCCC4)c3n1)C2=O,AC50,[4],active: 15.3 µM
